Where “and” joins values, the source holds several entries; their conditions need not be identical. Equal values may be shown once. The campaign covered roughly 300,000 compounds. About 3,700 (1.2%) were called active. The inconclusive results got no clear call from the source; some entries with a clear call stand among them for comparison. Calls come from the whole dose curve; tested in HEK293 cells. Potencies beside an inconclusive call are fits to weak or partial responses and may not hold up.
Assay: qHTS for Inhibitors of binding or entry into cells for Lassa Virus; note: nearly all actives have a fitted effect of over 50% in size
Details: Lassa virus pseudotype entry inhibition, cell reporter; series mostly up to 37.9 µM
Potency is the fitted concentration of half-maximal effect.

Structure (SMILES)	Potency
COc1ccc(NC(=O)c2ccc3oc(=O)c(S(=O)(=O)c4ccc(C)cc4)cc3c2)cc1OC	inactive
COC(=O)c1ccsc1NC(=O)CN1CCN(c2ncccn2)CC1	inconclusive: 14.1 µM [inhibitor, single point]
O=C(COC(=O)CNS(=O)(=O)c1cccc(F)c1)NCCc1ccccc1	inactive
CCN(CC)CCN(Cc1cc2cc3c(cc2[nH]c1=O)OCCO3)C(=S)NCCCOC	inactive
CCC1CSC(Nc2ccc(C(=O)/C=C/c3ccc(OC)c(OC)c3)cc2)=N1 (stereo not drawn)	active: 23.1 µM
C/C(=C1\SC(N2CCOCC2)=NC1=O)c1ccc(C)cc1	inconclusive: 10 µM [inhibitor, partial curve, poor fit]
CCOC(=O)C1=C(COC(=O)CCOc2ccc(C)cc2)NC(=O)NC1C (stereo not drawn)	inconclusive: 10 µM [inhibitor, partial curve, poor fit]
CCOc1ccc2nc(SCCNS(=O)(=O)c3ccccc3)sc2c1	inconclusive: 1.41 µM [inhibitor, single point]
Oc1c(N=Nc2ccc(F)cc2)ccc2ccccc12	inconclusive: 11.2 µM [inhibitor, single point]
Clc1ccc(CNc2ccccc2NCc2ccc(Cl)nc2)cn1	inconclusive: 17.8 µM [inhibitor, partial curve, poor fit]
CC(C)(C)c1ccc(S(=O)(=O)N(CCCN2CCOCC2)Cc2cccs2)cc1	inconclusive: 9.2 µM [inhibitor, partial curve, poor fit] and inconclusive: 1.78 µM [inhibitor, full curve]
O=C(NNC(=S)Nc1cccc(C(F)(F)F)c1)c1ccccc1Cl	inconclusive: 35.5 µM [inhibitor, single point]
CCC(=O)N1c2ccccc2CC1C(=O)NCc1cccc(C)c1 (stereo not drawn)	inactive
COc1ccccc1-c1nc(C#N)c(NCCCn2ccnc2)o1	inactive
CN1CCN(C(=O)c2ccc(NC(=O)Nc3ccc(N(C)c4ccnc(Nc5ccc(CS(C)(=O)=O)cc5)n4)cc3)cc2)CC1	inconclusive: 5.6 µM [inhibitor, full curve, poor fit]
Cc1cc(=O)oc2cc(OCC(=O)NCc3ccccn3)ccc12	inactive
COc1cccc(NC(=O)CC(=O)c2ccccc2)c1	inconclusive: 35.5 µM [inhibitor, single point]
Cc1ccc(-n2nc3c(c2NC(=O)c2cccs2)CSC3)cc1	inconclusive: 1.64 µM [inhibitor, full curve, poor fit]
CCc1c(C)sc(NC(=O)c2cccs2)c1C#N	inactive
NS(=O)(=O)c1ccc(CNC(=O)Cc2c(F)cccc2Cl)cc1	inactive
Clc1ccc(OCCOCCN2CCc3ccccc3C2)c(Cl)c1	inconclusive: 35.5 µM [inhibitor, single point]
CCOC(=O)c1c(C)[nH]c(C(=O)OCc2ccccc2F)c1C	active: 10 µM
Cc1c(C(=O)N(Cc2ccc(N(C)C)cc2)C2CCS(=O)(=O)C2)oc2ccccc12 (stereo not drawn)	inconclusive: 3.16 µM [inhibitor, full curve, poor fit]

Structure (SMILES)	Potency
O=C(O)CCCCCCCC(=O)O	inconclusive: 9.2 µM [activator, partial curve, poor fit]
COc1cc(C(=O)CC2(O)C(=O)N(Cc3ccccc3Cl)c3ccccc32)cc(OC)c1OC (stereo not drawn)	inconclusive: 35.5 µM [inhibitor, single point]
CCCN(CCC)S(=O)(=O)c1ccc(C(=O)NCc2ccco2)cc1	active: 0.794 µM
COc1ccc(C2C3=C(CC(C)(C)CC3=O)Nc3c2c(=O)[nH]c(=O)n3Cc2ccccc2)cc1OC (stereo not drawn)	inactive
COc1ccc2c(CNCc3ccc(C)o3)c(C(=O)O)n(Cc3ccccc3C)c2c1	inactive
COC[C@@H](O)[C@H]1OCc2cc(OC)ccc2[C@H]1C=Cc1ccccc1	inconclusive: 0.841 µM [inhibitor, partial curve, poor fit]
CCN(c1ccccc1)C(CNS(=O)(=O)c1ccccc1)c1ccccc1 (stereo not drawn)	inconclusive: 25.1 µM [inhibitor, single point]
Cc1nn(C(C)C(=O)NC2CCCCC2)c(=O)c2c1sc1ccccc12 (stereo not drawn)	inconclusive: 8.91 µM [inhibitor, partial curve, poor fit]
Cc1ccc(-c2nnc(Nc3ccc(Br)cc3)c3ccccc23)cc1S(=O)(=O)N1CCN(C)CC1	active: 11.2 µM
CO/N=C/C(=N\Nc1ccc(OC)cc1)C(=O)c1ccc(OC)cc1	active: 11.2 µM
COc1ccc(-c2nnc(SC(C)C(=O)Nc3cccc(Cl)c3)o2)cc1 (stereo not drawn)	inconclusive: 29.1 µM [inhibitor, single point]
COc1ccc(CCNC(=O)Cc2c(C)c3c(cc(C)c4c(C)coc43)oc2=O)cc1OC	inactive
COc1cc([N+](=O)[O-])cc(/C=N/NC(=O)c2ccc(C)nc2)c1O	inconclusive: 35.5 µM [inhibitor, single point]
CCc1ccc(N(C(=O)CCC(=O)Nc2cc(C)on2)C(C(=O)NC(C)(C)C)c2ccc(OC)cc2)cc1 (stereo not drawn)	inactive
CSc1ccc(CCNC(=O)C2CCCN(c3ncnc4c3nc3n4CCCCC3)C2)cc1 (stereo not drawn)	inconclusive: 31.6 µM [inhibitor, single point]
CCN(CC)CCN(C(=O)CCS(=O)(=O)c1ccccc1)c1nc2c(C)cc(C)cc2s1	inconclusive: 35.5 µM [inhibitor, single point]
CC(C)c1cc(C(=O)O)on1	inconclusive: 6.51 µM [activator, partial curve, poor fit]
Cc1ccc(Cl)cc1N(CC(=O)Nc1cccc(N(C)S(C)(=O)=O)c1)S(C)(=O)=O	inactive
O=C(N/N=C/c1cc2ccccc2nc1Cl)/C(=C/c1cccs1)NC(=O)c1ccccc1	inconclusive: 5.8 µM [inhibitor, partial curve, poor fit]
C=C(C)COc1ccc(-c2[nH]ncc2-c2ccccc2OC)c(O)c1	inconclusive: 29.1 µM [inhibitor, single point]
CCN(CC)S(=O)(=O)c1ccc(C(=O)OCC(=O)Nc2ccc(-c3nc4ccc(C)cc4s3)cc2)cc1	inconclusive: 2.51 µM [inhibitor, full curve]
COc1ccc2c(CN(C)c3ccccc3)cc(=O)oc2c1	inactive
Cn1nc(C(F)(F)F)c2cc(C(=O)Nc3ccc(F)c(Cl)c3)sc21	inconclusive: 11.2 µM [inhibitor, single point]

5 compounds drawn at random from those above, as already listed:
Structure (SMILES)	Potency
CCN(CC)CCN(C(=O)CCS(=O)(=O)c1ccccc1)c1nc2c(C)cc(C)cc2s1	inconclusive: 35.5 µM [inhibitor, single point]
CC(C)c1cc(C(=O)O)on1	inconclusive: 6.51 µM [activator, partial curve, poor fit]
COc1ccc2c(CN(C)c3ccccc3)cc(=O)oc2c1	inactive
O=C(O)CCCCCCCC(=O)O	inconclusive: 9.2 µM [activator, partial curve, poor fit]
C=C(C)COc1ccc(-c2[nH]ncc2-c2ccccc2OC)c(O)c1	inconclusive: 29.1 µM [inhibitor, single point]

Additional compounds

Structure (SMILES)	Potency
O=C(CCNC(=O)c1ccc(Cl)cc1)NCc1ccco1	inactive
CCCCCOP(=O)(c1ccccc1)c1ccccc1	inactive
COc1ccc(Cn2c(CNC(=O)c3ccc(N(C)C)cc3)nc3cccnc32)cc1	inactive
O=C(Cn1cc(SCc2ccc(C(F)(F)F)cc2)c2ccccc21)N1CCCCCC1	inconclusive: 35.5 µM [inhibitor, single point]
CCC(=O)c1c[nH]c(C(=O)NCc2cccc(C(F)(F)F)c2)c1	inconclusive: 10 µM [inhibitor, partial curve]
CNC(=O)c1ccc(OCc2ccccc2)c(OC)c1	inactive
COc1ccccc1N1CCN(C(=O)C(OC(C)=O)c2ccccc2)CC1 (stereo not drawn)	inconclusive: 6.51 µM [inhibitor, single point]
Cc1ccc(Cl)cc1NC(=O)C1CCCN(S(=O)(=O)c2c(C)noc2C)C1 (stereo not drawn)	inactive
CCC(Sc1nc2ccccc2c2nc(CCn3cncc3C)nn12)C(=O)Nc1cccc(OC)c1 (stereo not drawn)	inconclusive: 35.5 µM [inhibitor, single point]
CC1(C)CC(=O)C2=C(C1)NC1=C(C(=O)c3ccccc31)C2c1ccccc1 (stereo not drawn)	inconclusive: 14.1 µM [inhibitor, single point]
CC(C)Oc1ccc(C(=O)Nc2ccc3c(c2)CCCN3C(=O)c2cccs2)cc1	inconclusive: 4.47 µM [inhibitor, full curve, poor fit]
Cc1ccc(NC(=O)c2cnn(-c3ccccc3)c2C)c(C)c1	inconclusive: 1.26 µM [inhibitor, single point]
CC(C)(C)c1cc([N+](=O)[O-])cc(C(C)(C)C)c1O	active: 16.4 µM
Nc1cc2c(cc1[N+](=O)[O-])OCCOCCOCCO2	inconclusive: 6.31 µM [activator, single point]
COc1ccc(C2CC(=O)c3cc(-c4nc(-c5cccc([N+](=O)[O-])c5)cs4)c(=O)n(-c4ccc(C)c(C)c4)c3C2)cc1 (stereo not drawn)	inactive
O=C(NNc1nc(-c2ccc(Cl)cc2)cs1)c1ccco1	inconclusive: 11.2 µM [inhibitor, partial curve, poor fit]
COc1ccc(C2=NN(C(=O)/C=C/c3ccccc3)C(c3ccccc3)C2)c(OC(C)=O)c1 (stereo not drawn)	inconclusive: 17.8 µM [inhibitor, single point]
CCn1cc(CN(C)S(=O)(=O)c2ccc3ccccc3c2)c(C)n1	inconclusive: 20.6 µM [inhibitor, partial curve]
Cc1cccc(N2CCN(CCCNC(=O)C3CCCN(c4ncnc5c4nc4n5CCCCC4)C3)CC2C)c1 (stereo not drawn)	inconclusive: 1.12 µM [inhibitor, single point]
O=C(COc1cccnc1[N+](=O)[O-])NCCc1ccc(F)cc1	inconclusive: 35.5 µM [activator, single point]
COc1ccc(-c2cn3cc(C(F)(F)F)cc(Cl)c3n2)cc1	inconclusive: 31.6 µM [inhibitor, single point]
O=C(Nc1c(C(=O)N2CCN(c3ccc(F)cc3)CC2)oc2ccccc12)c1c(F)cccc1F	inactive

Reference: PubChem BioAssay AID540256 (National Center for Advancing Translational Sciences (NCATS), 2011)
